Values joined by “and” are separate entries in the source; they are usually repeats but may differ in a detail not shown here. Equal entries are not always repeated. Structures can show the parent of a compound that is named as a salt. Some of the results follow. This is a noisy data set.
Each compound was assayed on Salmonella enterica serovar Typhimurium ST313 D23580 (assay: normalized bacterial growth (OD600 20 h minus 0 h, interquartile-mean normalized) (fraction of plate interquartile mean); higher = more bacterial growth (less inhibition)). Conditions: LPM (pH 5.8, low phosphate, low Mg2+), concentration: 10 µM, temperature: 37 °C.

| SMILES | normalized bacterial growth |
| --- | --- |
| C=N[C@@H](C(=O)N[C@@H]1C(=O)N2[C@@H]1SC(C)(C)[C@@H]2C(=O)O)c1ccccc1 [Metampicillin sodium salt] | 1.08 |
| CC1(C)O[C@@H]2[C@@H](CO[C@@]3(COS(N)(=O)=O)OC(C)(C)O[C@@H]23)O1 | 0.86 |
| COc1cc2ccc(=O)oc2cc1O | 1.04 |
| NCCC(=O)NCCc1c[nH]cn1 [Carcinine] | 1.08 |
| CC(C)[C@@H]1CC[C@@H](C)CC1=O | 0.981 |
| NCCCCN [Putrescine dihydrochloride] | 0.892 |
| CC1=CC2C(CC1=O)C(C)=CCC2C(C)C (stereo not given) | 1.04 |
| CCCCCCCCNC(C)C(O)c1ccc(SC(C)C)cc1 (stereo not given) [Suloctidil] | 0.743 |
| CCCCCCCCNC(C)C(O)c1ccc(SC(C)C)cc1 (stereo not given) | 0.803 |
| CC(=O)CC(c1ccc([N+](=O)[O-])cc1)c1c(O)c2ccccc2oc1=O (stereo not given) [Acenocoumarol] | 1.08 |
| C[C@H]1O[C@@H](O[C@H]2[C@@H](O)C[C@H](O[C@H]3[C@@H](O)C[C@H](O[C@H]4CC[C@@]5(C)[C@H](CC[C@@H]6[C@@H]5CC[C@]5(C)[C@@H](C7=CC(=O)OC7)CC[C@]65O)C4)O[C@@H]3C)O[C@@H]2C)C[C@H](O)[C@@H]1O | 0.877 |
| C=C(C)[C@@H]1CC[C@]2(C)CC[C@]3(C)[C@H](CC[C@@H]4[C@@]5(C)CC[C@H](O)C(C)(C)[C@@H]5CC[C@]43C)[C@@H]12 | 1.03 |
| S=c1[nH]cnc2nc[nH]c12 | 0.23 |
| COc1cc2c(cc1OC)[C@@H]1C(=O)c3ccc4c(c3O[C@@H]1CO2)C=CC(C)(C)O4 | 0.756 |
| CC(=O)/C=C\[C@@H]1[C@@]2(C)CCCC(C)(C)C2CC[C@@]1(C)O (stereo not given in full) | 0.808 |
| COc1ccc2c3c1O[C@H]1C[C@@H](O)C=C[C@@]31CCN(C)C2 | 1.12 and 0.899 |
| CCCCC1(C2CCCC2)Cc2cc(OCC(=O)O)c(Cl)c(Cl)c2C1=O (stereo in doubt) [R(+)-Butylindazone] | 0.637 |
| CCCC(=O)O[C@]1(C(=O)CO)CC[C@H]2[C@@H]3CCC4=CC(=O)CC[C@]4(C)[C@H]3[C@@H](O)C[C@@]21C | 0.997 |
| CC1(C)S[C@@H]2[C@H](NC(=O)COc3ccccc3)C(=O)N2[C@H]1C(=O)O | 0.612 |
| Cc1nnc(SCC2=C(C(=O)O)N3C(=O)[C@@H](NC(=O)Cn4cnnn4)[C@H]3SC2)s1 [Cefazolin sodium] | 0.912 |
| O=C1OC(=O)[C@H]2[C@@H]1[C@@H]1CC[C@H]2O1 [Norcantharidin] | 1.05 |
| C[C@]12CCC3c4ccc(OS(=O)(=O)O)cc4CCC3C1CC[C@H]2O (stereo not given in full) | 1.23 |

Exported bar-delimited: entries from further up
SMILES | normalized bacterial growth
C=C(C)[C@@H]1CC[C@]2(C)CC[C@]3(C)[C@H](CC[C@@H]4[C@@]5(C)CC[C@H](O)C(C)(C)[C@@H]5CC[C@]43C)[C@@H]12 | 1.03
S=c1[nH]cnc2nc[nH]c12 | 0.23
COc1cc2c(cc1OC)[C@@H]1C(=O)c3ccc4c(c3O[C@@H]1CO2)C=CC(C)(C)O4 | 0.756
CC(=O)/C=C\[C@@H]1[C@@]2(C)CCCC(C)(C)C2CC[C@@]1(C)O (stereo not given in full) | 0.808
COc1ccc2c3c1O[C@H]1C[C@@H](O)C=C[C@@]31CCN(C)C2 | 1.12 and 0.899

Looked up above.
CC(=O)/C=C\[C@@H]1[C@@]2(C)CCCC(C)(C)C2CC[C@@]1(C)O (stereo not given in full) | normalized bacterial growth: 0.808
NCCCCN [Putrescine dihydrochloride] | normalized bacterial growth: 0.892

Additional records follow:

| SMILES | normalized bacterial growth |
| --- | --- |
| CC(C)NC(=N)NC(=N)Nc1ccc(Cl)cc1 | 1.42 |
| O=c1[nH]c2cc(Cl)c(Cl)cc2[nH]c1=O ["6,7-Dichloroquinoxaline-2,3-dione"] | 1.01 |
| COC(=O)[C@@H](N)Cc1ccc(O)c(O)c1 ["L-3,4-Dihydroxyphenylalanine methyl ester hydrochloride"] | 0.919 |
| C[C@]12CCC(=O)C=C1C=C[C@@H]1[C@@H]2CC[C@@]2(C)[C@H]1CC[C@@]21CCC(=O)O1 | 0.779 |
| COc1ccc2c(c1)c(CC(=O)O)c(C)n2Cc1ccc(Cl)cc1 [1-(4-Chlorobenzyl)-5-methoxy-2-methylindole-3-acetic acid] | 0.573 |
| CC1(C)[C@@H](O)CC[C@]2(C)[C@H]3C(=O)C=C4[C@@H]5C[C@@](C)(C(=O)O)CC[C@]5(C)CC[C@@]4(C)[C@]3(C)CC[C@@H]12 | 1.06 |
| C[C@@H]1O[C@@H](OC[C@H]2O[C@@H](Oc3cc(O)c4c(c3)O[C@H](c3ccc(O)c(O)c3)CC4=O)[C@H](O)[C@@H](O)[C@@H]2O)[C@H](O)[C@H](O)[C@H]1O | 1.33 |
| Oc1cc(O)c2c(c1)O[C@H](c1ccc(O)c(O)c1)[C@@H](O)C2 (racemic) ["Catechin-(+,-) hydrate"] | 1.42 |
| CCCCCC(=O)Cc1cc(O)cc(O)c1C(=O)Oc1cc(CC(=O)CCCCC)c(C(=O)O)c(OC)c1 | 0.864 |
| COc1ccc(-c2coc3cc(O)ccc3c2=O)c(O)c1O | 0.606 |
| NC(=O)OCC(O)COc1ccc(Cl)cc1 (stereo not given) [Chlorphensin carbamate] | 0.845 |
| NCCS [Cysteamine hydrochloride] | 1.01 |
| COCCOC(=O)C1=C(C)NC(C)=C(C(=O)OC(C)C)C1c1cccc([N+](=O)[O-])c1 (stereo not given) [Nimodipine] | 0.957 |
| CN1C(C(=O)Nc2ccccn2)=C(O)c2ccccc2S1(=O)=O [Piroxicam] | 0.881 |
| NC(=O)c1ccc[n+]([C@@H]2O[C@H](COP(=O)([O-])OP(=O)(O)OC[C@H]3O[C@@H](n4cnc5c(N)ncnc54)[C@H](O)[C@@H]3O)[C@@H](O)[C@H]2O)c1 | 1.26 |
| CNCCC=C1c2ccccc2C=Cc2ccccc21 [Norcyclobenzaprine] | 1.11 |
| NCC(=O)CCC(=O)O | 0.682 |
| N=C(N)SCCc1ccc(CCSC(=N)N)cc1 ["1,4-PBIT dihydrobromide"] | 0.949 |
| COc1ccc(CN(CCN(C)C)c2ncccn2)cc1 | 1.2 |
| COc1c2ccoc2cc2oc(C)cc(=O)c12 | 0.915 |
| Cc1ccc(C)c(OCCCC(C)(C)C(=O)O)c1 | 0.743 |
| O=c1[nH]c2cc(Cl)ccc2c(O)c1-c1cccc(Oc2ccccc2)c1 | 1.16 |

| SMILES | normalized bacterial growth |
| --- | --- |
| C=CCN1CCc2c(cc(O)c(O)c2Cl)C(c2ccccc2)C1 (stereo not given) [()-Chloro-APB hydrobromide] | 0.719 |
| COC(=O)c1c(C)c2c(c(C)c1O)OC(=O)c1c(C)c(Cl)c(O)c(Cl)c1O2 | 0.91 |
| COc1cc2c(cc1OC)[C@@H]1Cc3ccc(OC)c(OC)c3CN1CC2 | 0.78 |
| NCCC(=O)c1ccccc1N | 0.858 |
| O=C(CCCN1CCC(O)(c2ccc(Cl)cc2)CC1)c1ccc(F)cc1 [Haloperidol] | 1.11 |
| CCCCCCCCCCOc1cc2c(O)c(C(=O)OCC)cnc2cc1OCC | 0.826 |
| C=CCc1ccc(O)c(-c2cc(CC=C)ccc2O)c1 | 0.756 |
| COc1ccc2c(c1)C(=O)N(CCc1ccc(S(=O)(=O)NC(=O)NC3CCCCC3)cc1)C(=O)C2(C)C [Gliquidone] | 0.971 |
| CC(C)c1cccc(=O)c(O)c1 | 0.155 |
| CC(=N)NCc1cccc(CN)c1 [1400W dihydrochloride] | 1.16 |
| CN(C)CCN(Cc1ccc(Cl)cc1)c1ccccn1 [Chloropyramine hydrochloride] | 1.03 |
| COc1ccc([C@@H]2Sc3ccccc3N(CCN(C)C)C(=O)[C@@H]2OC(C)=O)cc1 [Diltiazem hydrochloride] | 0.844 |
| COc1ccc([C@@H]2Sc3ccccc3N(CCN(C)C)C(=O)[C@@H]2OC(C)=O)cc1 | 0.556 |
| N[C@@H](Cc1c[nH]cn1)C(=O)O [L-Histidine hydrochloride] | 0.877 |
| CC(C[N+](C)(C)C)OC(N)=O (stereo not given) [Bethanechol chloride] | 1.15 |
| COc1cc(/C=C(\C#N)C(=O)c2ccc(O)c(O)c2)cc(I)c1O [I-OMe-Tyrphostin AG 538] | 0.903 |
| NCCc1cc[nH]n1 [Betazole hydrochloride] | 1.09 |
| Cc1c(NC(C)C)c(=O)n(-c2ccccc2)n1C | 1.18 |
| O=c1cc(-c2ccc(O)cc2)oc2cc(O[C@@H]3O[C@H](CO)[C@@H](O)[C@H](O)[C@H]3O)cc(O)c12 | 0.797 and 1.17 |
| COc1c2c(cc3occ(-c4ccc5c(c4)OCO5)c(=O)c13)OC(C)(C)C=C2 | 0.641 |
| CC1(C)O[C@H]2[C@H](O)C[C@](O)(C(N)=O)C[C@H]2O1 | 1.02 |
| CC(C)(C)c1cc(/C=C(\C#N)C(N)=S)cc(C(C)(C)C)c1O [Tyrphostin AG 879] | 0.933 |

| SMILES | normalized bacterial growth |
| --- | --- |
| CCC(=O)NCC[C@@H]1CCc2ccc3c(c21)CCO3 | 1.39 |
| CC[C@H](/C=C/[C@@H](C)[C@H]1CC[C@H]2[C@@H]3CCC4=CC(=O)CC[C@]4(C)[C@H]3CC[C@]12C)C(C)C | 1.36 |
| COc1ccc(-c2coc3cc(O)cc(O)c3c2=O)cc1 | 0.977 |
| CN1Cc2sccc2C(c2ccc(O)c(O)c2)C1 (stereo not given) | 1.36 |
| COc1cc2c(cc1OC)C(=O)OC2 | 0.939 |
| COc1ccccc1N1CCN(CCN2C(=O)CC3(CCCC3)CC2=O)CC1 [BMY 7378 dihydrochloride] | 0.92 |
| OCC(O)CN1CCN(c2ccccc2)CC1 (stereo not given) | 1.19 |
| CN(C)CCC(c1ccc(Cl)cc1)c1ccccn1 (stereo not given) [()-Chlorpheniramine maleate] | 0.942 |
| C[C@H](O)C(=O)C1=Nc2c(nc(N)[nH]c2=O)NC1 [Sepiapterin] | 1.05 |
| COc1cc(N)c(Cl)cc1C(=O)NC1CCN(CCCOc2ccc(F)cc2)CC1OC (stereo not given) [Cisapride] | 0.918 |
| Nn1nnc2ccccc21 [1-Aminobenzotriazole] | 1.15 |
| CN(C)CCCC1(c2ccc(F)cc2)OCc2cc(C#N)ccc21 (stereo not given) | 1.07 |
| CN(C)CCCC1(c2ccc(F)cc2)OCc2cc(C#N)ccc21 (stereo not given) [Citalopram hydrobromide] | 0.588 |
| CCCC(CCC)C(=O)O [Valproic acid sodium] | 1.17 |
| Cc1onc(-c2ccccc2)c1C(=O)N[C@@H]1C(=O)N2[C@@H]1SC(C)(C)[C@@H]2C(=O)O | 1.3 |
| COc1ccccc1CNCCCCCCNCCCCCCCCNCCCCCCNCc1ccccc1OC [Methoctramine tetrahydrochloride] | 0.833 |
| Cc1c(OCC(F)(F)F)ccnc1C[S+]([O-])c1nc2ccccc2[nH]1 (stereo not given) [Lansoprazole] | 1.04 |
| O=C(/C=C/c1ccccc1)c1ccc(O)cc1O | 1.02 |
| [N-]=[N+]=Nc1ccc(C(=O)CSC[C@H](NC(=O)CC[C@H](N)C(=O)O)C(=O)NCC(=O)O)cc1 [S-(p-Azidophenacyl)glutathione] | 0.976 |
